The list shows a part of the results.
system: T1, CTL2-GFP (C. trachomatis L2/434/Bu, GFP-expressing); design: species or system HeLa; Intracellular C. trachomatis growth in HeLa cells, bulk GFP fluorescence relative to DMSO; settings: bulk GFP, single well; 28.5 h, 10 µM; inhibitor
T1 construct: L2/434/Bu, GFP-expressing

Row | SMILES | % of control remaining
1 | COC(=O)CCc1ccc(-c2cnc(N)c(-c3ccc(O)cc3)n2)cc1 [CBK122809] | 46.2637%
2 | CS(=O)(=O)N(Cc1ccccc1)c1ccc(C(=O)N2CCN(Cc3ccccc3)CC2)cc1 [CBK264134] | 89.4791%
3 | CC(C)Oc1ccc(C(=O)C2=C(O)C(=O)N(CCN(C)C)C2c2ccncc2)cc1 (stereo not drawn) [CBK264907] | 139.122%
4 | COc1cccc(C(=O)N2CCC(Cc3cccc(-c4cccs4)c3)(C(N)=O)CC2)c1 [CBK285781] | 118.219%
5 | O=C(CCSc1ccc(Cl)cc1)NCCN1CCOCC1 [CBK269352] | 116.675%
6 | COc1cc(F)cc(OC2CCNCC2)c1NC(=O)C1(c2ccccc2)CCCCC1 [CBK050241T] | 101.209%
7 | O=C(Nc1cccnc1)c1cccnc1C(=O)O [CBK269663] | 119.857%
8 | CCOC(=O)c1c(CSc2ccc(Cl)cc2)n(C)c2cc(Br)c(O)c(CN(C)C)c12 [CBK217489C] | 105.626%
9 | Cc1ccc(-n2ncc3c2NC(=O)N2CCCN=C32)cc1 [CBK284416] | 101.74%
10 | O=c1c(Cc2ccc(Cl)cc2)c(O)ccn1Cc1ccncc1 [CBK291161] | 128.398%
11 | COc1cc(NC(=O)c2ccc3c(c2)C(=O)N(Cc2cccnc2)C3=O)c(C(=O)O)cc1OC [CBK266802] | 129.778%
12 | O=C1COc2ccccc2C/C=C/CC2(CCN(C(=O)c3c[nH]cn3)CC2)C(=O)NCCN1 [CBK291990] | 123.33%
13 | CCN(Cc1cncn1C)C(CC1CCCCC1)c1ccccc1 (stereo not drawn) [CBK066815T] | 81.7845%
14 | c1csc(CN2CCC(n3cnc4cccnc43)CC2)c1 [CBK283968] | 105.859%
15 | O=C(Nc1cccc2cc[nH]c12)c1cccc(F)c1Cl [CBK160074] | 99.7764%
16 | Nc1nc(Cc2ccc(F)cc2)no1 [CBK028717] | 111.927%
17 | CN1C[C@@H](C(=O)N(C)C)[C@@]2(CCc3ccccc3C(=O)N2)C1 [CBK284792] | 124.477%
18 | N=c1c2c(-c3ccccc3)c(-c3ccccc3)n(Cc3ccccc3)c2ncn1CCN1CCOCC1 [CBK268537] | 38.9264%
19 | O=C(Cn1ccnc1)NC(c1ccc(Cl)cc1)c1cccnc1 (stereo not drawn) [CBK281481] | 120.488%
20 | Cc1nn(Cc2ccc(Cl)cc2)c(C)c1NC(=O)CSc1nc(-c2ccc(F)cc2)cc(C(F)(F)F)n1 [CBK266160] | 148.156%
21 | CN(C)c1ccc(CC(=O)NC2Cc3ccccc3C2)cc1 [CBK200360] | 124.93%
22 | CCCNC(=O)c1cc(C2CCCN(Cc3ccc(F)cc3)C2)no1 (stereo not drawn) [CBK283387] | 115.576%
23 | CC1(CNC(=O)c2ccccc2Cn2cccn2)COC1 [CBK281750] | 152.161%
24 | O=C(CC(=O)Nc1c(Cl)cccc1C(F)(F)F)Nc1c(Cl)cccc1C(F)(F)F [CBK263148] | 102.458%
25 | Cc1cc(/C=C2/NC(=S)NC2=O)c(C)n1-c1ccc(Sc2ccc([N+](=O)[O-])cc2)cc1 [CBK263883] | 106.468%

Row | SMILES | % of control remaining
26 | COc1ccc(C2(C)NC(=O)N(CC(=O)Nc3ccc(NC(C)=O)cc3)C2=O)cc1 (stereo not drawn) [CBK295182] | 138.806%
27 | Cn1c(COc2ccccc2)nnc1SCc1nnc(-c2ccccc2)o1 [CBK269628] | 133.295%
28 | Nc1ncc(-c2ccc(Cl)cc2)c(C2CCCN(C(=O)C3CCCC3)C2)n1 (stereo not drawn) [CBK285571] | 141.249%
29 | CCCC(=O)NCCn1nc(-c2ccccc2F)cc1CN(C)C [CBK282000] | 88.8705%
30 | COC(=O)c1c(NC(=S)Nc2ccc(CC(=O)O)cc2)sc(C)c1C [CBK267111] | 182.605%
31 | CN(CC(=O)N1CCN(Cc2ccc3c(c2)OCO3)CC1)S(=O)(=O)c1ccc2ccccc2c1 [CBK267016] | 119.07%
32 | NS(=O)(=O)c1ccc(Nc2c(C(=O)O)cc([N+](=O)[O-])cc2[N+](=O)[O-])cc1 [CBK261319] | 108.982%
33 | Cn1c(SCC(=O)N2CCN(c3ccccc3)CC2)nnc1-c1cccc([N+](=O)[O-])c1 [CBK265209] | 143.522%
34 | O=S(=O)(Nc1cccc(-c2cnco2)c1)c1ccc(Cl)c(Cl)c1 [CBK067117] | 103.297%
35 | CCc1cc(C(=O)N2CCCC(c3cc4ccccc4cn3)C2)on1 (stereo not drawn) [CBK285156] | 114.543%
36 | Cc1cc(NC(=O)c2ccc(S(=O)(=O)N(C)C)cc2)nc2c1c(=O)oc1ccccc12 [CBK291135] | 110.462%
37 | O=C(/C=C/c1ccc(Cl)cc1Cl)NCCNc1c(Cl)cccc1[N+](=O)[O-] [CBK264295] | 110.963%
38 | COc1ccc(C(=O)NNC(=O)/C=C/c2ccc(C(C)C)cc2)cc1 [CBK261697] | 19.4008%
39 | N#Cc1ccc(NC(=O)c2ccc(-n3cnnc3)cc2Cl)cc1 [CBK269758] | 126.602%
40 | Cc1cc(S)n2nc(C)c(-c3ccccc3)c2n1 [CBK288423] | 98.6111%
41 | COc1ccc(C(=O)c2c(N)c(C(=O)Nc3ccccc3)c3ccccn23)cc1 [CBK300509] | 169.538%
42 | CCCc1cc(C(=O)N2CCNCC2C(=O)N2CCN(C)CC2)ccn1 (stereo not drawn) [CBK307619] | 116.478%
43 | Cc1noc2nc(-c3ccccc3F)cc(C(=O)N3CCCC3c3nnc4ccccn34)c12 (stereo not drawn) [CBK296756] | 135.657%
44 | COc1cncc(-c2cc(Nc3ccc(O)cc3C)ncn2)c1 [CBK091061] | 102.175%
45 | Cn1ccnc1CN1CCC2(CC1)CC(C(=O)O)N(C(=O)C1CC1)C2 (stereo not drawn) [CBK306986] | 106.814%
46 | O=C(c1cc(-c2ccccc2)n[nH]c1=O)N1CCc2ccccc2C1 [CBK291216] | 128.929%
47 | O=C(O)c1ccc2c(c1)C(=O)N(c1nc(-c3cccnc3)n[nH]1)C2=O [CBK268284] | 110.844%
48 | N=c1c2c3c(sc2ncn1CCCN1CCOCC1)CCCC3 [CBK268323] | 112.774%
49 | Cc1ccc(S(=O)(=O)Nc2ccc3c(c2)CC(=O)N3)cc1 [CBK287657] | 110.518%
50 | O=C(Nc1cc(Oc2cccnc2)cc([N+](=O)[O-])c1)c1sc2ccccc2c1Cl [CBK300485] | 114.597%

Laid out differently: entries from further up
Cn1c(COc2ccccc2)nnc1SCc1nnc(-c2ccccc2)o1 [CBK269628]
  % of control remaining: 133.295%
Nc1ncc(-c2ccc(Cl)cc2)c(C2CCCN(C(=O)C3CCCC3)C2)n1 (stereo not drawn) [CBK285571]
  % of control remaining: 141.249%
CCCC(=O)NCCn1nc(-c2ccccc2F)cc1CN(C)C [CBK282000]
  % of control remaining: 88.8705%

(next part)

Row | SMILES | % of control remaining
51 | Cc1ccc(S(=O)(=O)c2ccccc2)cc1S(=O)(=O)NCc1ccncc1 [CBK270073] | 91.4167%
52 | COc1ccc(C(=O)Nc2nc3ccc(S(N)(=O)=O)cc3s2)cc1 [CBK291147] | 108.957%
53 | CC(C)(C)C1=CC2=NC3(CCS(=O)(=O)CC3)[C@@H]3C[C@@H](O)[C@@H](O)[C@@H]3N2O1 [CBK303247] | 128.382%
54 | Cc1nnc(CN(CC2CCCO2)C2CCC(C)CC2)n1C (stereo not drawn) [CBK305548] | 150.061%
55 | COc1cccc(NC(=O)c2ccc(-c3cc(C(F)(F)F)cc(C(F)(F)F)c3)nc2N(C)C)c1 [CBK106028] | 79.3263%
56 | CCc1nc2c(OCc3ccccc3)cccn2c1N(C)C(=O)Nc1ccccc1OC [CBK147890] | 150.948%
57 | Cc1ccc(NC(=O)COc2ccccc2)c(NC(=O)c2ccco2)c1 [CBK266809] | 109.587%
58 | CN1CCN(C(=O)c2[nH]c3ccccc3c2NS(=O)(=O)Cc2ccccc2)CC1 [CBK050046] | 92.6975%
59 | Cc1cccnc1NC(=O)COc1ccc(Cl)cc1 [CBK262175] | 78.8723%
60 | COc1ccc(Br)cc1S(=O)(=O)n1ccnc1C [CBK264003] | 128.215%
61 | Cc1c(C(=O)N2CCC(N3CCSCC3)CC2)[nH]c2c(F)cccc12 [CBK307065] | 148.917%
62 | CCOc1ccc(NC(=O)C2C3C=CC(O3)C2C(=O)O)cc1 (stereo not drawn) [CBK261592] | 104.205%
63 | Cc1cccc(C)c1OCC(=O)Nc1cccc(Oc2ccc3c(c2)C(=O)N(c2ccccc2)C3=O)c1 [CBK265499] | 110.467%
64 | O=C(Nc1ccccc1N1CCN(C(=O)c2ccc(Cl)cc2)CC1)c1ccc(-c2cccc([N+](=O)[O-])c2)o1 [CBK266398] | 146.516%
65 | N#Cc1cccc(C(=O)N2CCCC3(CCN(C(=O)Cc4c[nH]c5ccccc45)C3)C2)c1 (stereo not drawn) [CBK131581] | 116.135%
66 | Cc1ccc(CNC(=O)OCCN2CCN(C)CC2)o1 [CBK200205] | 154.412%
67 | Cc1nn(CC(=O)N(C)Cc2cnn(C)c2)c(=O)c2ccccc12 [CBK305701] | 156.478%
68 | CCCn1cnc2cc(NC(=O)Cn3cccc(C(=O)NC4CCCCC4)c3=O)ccc21 [CBK286075] | 118.895%
69 | Cc1cc(/C=N/O)c(C)c(COCc2cc(C)cc(/C=N/O)c2C)c1 [CBK261770] | 115.873%
70 | Cc1nc2ccccc2c(SCCC(=O)O)c1Cc1ccccc1 [CBK144942T] | 81.6506%
71 | CCCOc1ncccc1O [CBK001459] | 101.176%
72 | COc1ccc(S(=O)(=O)Nc2nccnc2-c2ccc3[nH]ccc3c2)cc1 [CBK050805] | 168.223%
73 | COc1cc2c(cc1OC)CN(C(=O)N(CCN)CCC(C)c1ccccc1)CC2 (stereo not drawn) [CBK000612C] | 116.113%
74 | Nc1nonc1-n1nnc(C(=O)N/N=C2\CCc3ccccc32)c1-c1ccccc1 [CBK261988] | 100%
75 | CCCC(=O)Nc1ccc(OCc2ncc(C(C)(C)C)o2)c(C(C)=O)c1 [CBK305218] | 145.352%

Ordered by length of the SMILES (rising): three of the compounds above.
Row | SMILES | % of control remaining
59 | Cc1cccnc1NC(=O)COc1ccc(Cl)cc1 [CBK262175] | 78.8723%
66 | Cc1ccc(CNC(=O)OCCN2CCN(C)CC2)o1 [CBK200205] | 154.412%
61 | Cc1c(C(=O)N2CCC(N3CCSCC3)CC2)[nH]c2c(F)cccc12 [CBK307065] | 148.917%

From publication PMC12040169 (PLOS Biology, 2025)
